Laboratory results: PubChem BioAssay AID720505 (Drosophila RNAi Screening Center, 2013)

- Assay: 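Genes needed for store-operated calcium entry in fly cells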 (primary screen)
- Cell system: Drosophila S2R+ cells
- Reagents: long dsRNA against Drosophila genes
- Treatment: thapsigargin (2 µM) in calcium-free buffer to empty internal stores, then 2 mM calcium added back
- Detection: 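Fluo-4 signal in 384-well plates read on a FLIPR after thapsigargin (2 µM, calcium-free) store depletion and 2 mM calcium add-back; unnormalised mean endpoint per well; screen run twice, selected wells retested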
- Direction: calcium signal and retest calcium signal: higher = more calcium entry after store depletion
- Rule for the call: 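About 1500 genes called as lowering calcium entry, by varying amounts, judged against per-plate control wells with STIM1 as positive and Rho1 as negative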
- Calls: active = called as lowering calcium entry; inactive = not called
The screen tested about 20,000 reagents; shown is a random part of those that have a named target and a result. In the full data, about 2,100 (10%) got an active call. 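Raw plate signals without normalisation; calls rest on control-based scores that were not deposited; replicate 2 separates called from uncalled poorly.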 A number with no mark means an inactive call. Not stated in the record: the amount of reagent, the time to read-out.

no.	gene	dsRNA	calcium signal, replicate 1	calcium signal, replicate 2	retest calcium signal, replicate 1	retest calcium signal, replicate 2
1	CG14342	DRSC00372	193	101		
2	IntS6	DRSC18281	116	81.5		
3	CG7518	DRSC16253	83.8	131		
4	CecC	DRSC16606	139	161		
5	CG30380	DRSC05069	97.3	147		
6	hop	DRSC20340	100	109		
7	hop	DRSC23334	106	144		
8	CG1529	DRSC20515	153	105	6145	115
9	CG42331	DRSC14633	71.8	146		
10	CG42331	DRSC16126	164	90.3		
11	rgn	DRSC11609	55.2 (active)	110		
12	CG7173	DRSC11812	93.7	136		
13	CG7173	DRSC23252	115	143		
14	CG17283	DRSC15219	146	179		
15	Rnp4F	DRSC18706	135	94.2		
16	MED19	DRSC10516	131	84.5		
17	Wdr92	DRSC10187	125	153		

The list goes on (3 carried over from the part before).
no.	gene	dsRNA	calcium signal, replicate 1	calcium signal, replicate 2	retest calcium signal, replicate 1	retest calcium signal, replicate 2
15	Rnp4F	DRSC18706	135	94.2		
16	MED19	DRSC10516	131	84.5		
17	Wdr92	DRSC10187	125	153		
18	P5CS	DRSC11831	110	110		
19	P5CS	DRSC11832	88.3	110		
20	Nak	DRSC03379	90.5	105		
21	CG32374	DRSC10986	92.1	98.8		
22	Tango6	DRSC02671	81.2	91.6		
23	Taf5	DRSC07562	202	172		
24	Pgcl	DRSC18815	68.3	110		
25	CG13728	DRSC10056	68.7	135		
26	CG5902	DRSC15912	127	159		
27	Nt5a	DRSC08561	138	94.5		
28	smid	DRSC11398	92.4	53		
29	Dhc36C	DRSC03315	83	101		
30	norpA	DRSC18806	121	159		
31	CG1690	DRSC06636	137	132		
32	CG32590	DRSC19594	96.1	164		
33	CG10073	DRSC05961	132	146		
34	Evi5	DRSC19421	105	86.4		
